{"source": "paper PMC11771213", "about": "(International Journal of Molecular Sciences, 2025)", "test": "peptide made by a vendor", "conditions": "whole synthesis", "note": "No end group written: not given here."}
{"sequence": "TPVVVPPFL", "values": [{"measurement": "outcome", "value": "proved to be resistant to both synthetic purification and production"}]}
